Like-named read-outs stand apart in the source and are kept apart here. For at least one compound, name, drawing or mass did not settle the structure. Bridge positions count the residues as written; N and C are the ends. Peptide text beside a SMILES is read from it.
Biological target: T1, calcitonin receptor (Homo sapiens, UniProt P30988)
T1 sequence (P30988 25-474): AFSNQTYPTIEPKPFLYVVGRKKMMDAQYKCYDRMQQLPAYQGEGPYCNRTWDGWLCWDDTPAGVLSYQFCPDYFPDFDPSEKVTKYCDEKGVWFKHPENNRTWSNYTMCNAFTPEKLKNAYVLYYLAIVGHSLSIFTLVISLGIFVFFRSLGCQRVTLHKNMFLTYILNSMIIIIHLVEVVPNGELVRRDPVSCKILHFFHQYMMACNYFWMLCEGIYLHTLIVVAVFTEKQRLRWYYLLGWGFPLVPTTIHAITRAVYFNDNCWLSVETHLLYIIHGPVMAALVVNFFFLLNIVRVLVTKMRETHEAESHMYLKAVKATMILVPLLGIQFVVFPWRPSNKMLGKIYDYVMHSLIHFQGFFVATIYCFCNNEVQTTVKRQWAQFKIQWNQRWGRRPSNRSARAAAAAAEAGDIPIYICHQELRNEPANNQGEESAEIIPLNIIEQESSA
Test: cAMP production in T47D cells (AlphaScreen)

CC(C)C[C@H](NC(=O)CNC(=O)[C@H](C)NC(=O)[C@H](CC(C)C)NC(=O)[C@H](CCCNC(=N)N)NC(=O)[C@H](Cc1c[nH]cn1)NC(=O)[C@@H](NC(=O)[C@@H](NC(=O)[C@@H]1CSSC[C@H](NC(=O)[C@H](C)N)C(=O)N[C@@H](CC(=O)O)C(=O)N[C@@H]([C@@H](C)O)C(=O)N[C@@H](C)C(=O)N[C@@H]([C@@H](C)O)C(=O)N1)C(C)C)[C@@H](C)O)C(=O)N[C@@H](CC(C)C)C(=O)N[C@@H](CO)C(=O)N[C@@H](CCCNC(=N)N)C(=O)N[C@@H](CO)C(=O)NCC(=O)NCC(=O)N[C@@H](Cc1c[nH]c2ccccc12)C(=O)N[C@@H](CCCCN)C(=O)N[C@@H](CC(N)=O)C(=O)N[C@@H](CC(N)=O)C(=O)N[C@@H](Cc1ccccc1)C(=O)N[C@H](C(=O)N1CCC[C@H]1C(=O)N[C@H](C(=O)N[C@@H](CC(N)=O)C(=O)N[C@H](C(=O)NCC(=O)N[C@@H](CO)C(=O)N[C@@H](CCCCN)C(=O)N[C@@H](C)C(=O)N[C@@H](Cc1ccccc1)C(N)=O)C(C)C)[C@@H](C)O)C(C)C [SEQ ID NO: 7] (H-ACDTATCVTHRLAGLLSRSGGWKNNFVPTNVGSKAF-NH2; disulfide 2-7 (inferred); N-terminus assumed)
EC50 (read-out: Average EC50, 7500 cells/well, average of three experiments): 35.5 nM
EC50 (read-out: Experiment 1 EC50, 7500 cells/well): 11.9 nM
EC50 (read-out: Experiment 2 EC50, 7500 cells/well): 66.7 nM
EC50 (read-out: Experiment 3 EC50, 7500 cells/well): 27.8 nM
